Laboratory results from article doi:10.1101/704106.
Results are given in words; binding and its absence hold for the method and conditions named. Some results given as binding are weak or reduced against the parent protein; the word gives no strength.

Legend:
Test in all cases: HDX-MS
[1] = biological target: R649W PI3Kα (p110α/p85α-R649W heterodimer) (UniProt P42336)
[2] = biological target: WT PI3Kα (p110α/p85α heterodimer) (UniProt P42336)
[3] = biological target: p110α/p85α-R590* heterodimer (UniProt P42336)

binding [1]: binds
binding [2]: binds
binding [3]: binds
Substance: PDGFR bis-phosphorylated pY peptide (residues 735-767, pY740 and pY751) (from UniProt P09619 735-767)
